Results are given in words; binding and its absence hold for the method and conditions named. Binding seen in cells or lysates may run through a third protein. Some results given as binding are weak or reduced against the parent protein; the word gives no strength.
T1: KAT8 (mouse (endogenous in cerebellum)) (UniProt Q9D1P2)
T1 sequence: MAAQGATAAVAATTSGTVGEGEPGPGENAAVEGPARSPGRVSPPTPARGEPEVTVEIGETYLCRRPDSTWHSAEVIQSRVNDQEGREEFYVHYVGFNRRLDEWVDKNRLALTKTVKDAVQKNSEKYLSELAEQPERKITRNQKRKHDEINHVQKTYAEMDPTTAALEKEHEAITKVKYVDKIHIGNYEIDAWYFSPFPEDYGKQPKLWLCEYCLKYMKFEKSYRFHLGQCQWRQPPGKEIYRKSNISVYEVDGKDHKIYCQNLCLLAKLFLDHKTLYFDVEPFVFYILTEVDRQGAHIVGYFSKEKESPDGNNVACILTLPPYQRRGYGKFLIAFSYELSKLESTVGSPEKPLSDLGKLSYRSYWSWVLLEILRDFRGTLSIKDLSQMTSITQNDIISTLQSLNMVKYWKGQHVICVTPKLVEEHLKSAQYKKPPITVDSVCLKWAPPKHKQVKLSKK

Sequences of proteins named here, by UniProt entry; tags and fusion partners are left off.
UniProt Q9CPN8: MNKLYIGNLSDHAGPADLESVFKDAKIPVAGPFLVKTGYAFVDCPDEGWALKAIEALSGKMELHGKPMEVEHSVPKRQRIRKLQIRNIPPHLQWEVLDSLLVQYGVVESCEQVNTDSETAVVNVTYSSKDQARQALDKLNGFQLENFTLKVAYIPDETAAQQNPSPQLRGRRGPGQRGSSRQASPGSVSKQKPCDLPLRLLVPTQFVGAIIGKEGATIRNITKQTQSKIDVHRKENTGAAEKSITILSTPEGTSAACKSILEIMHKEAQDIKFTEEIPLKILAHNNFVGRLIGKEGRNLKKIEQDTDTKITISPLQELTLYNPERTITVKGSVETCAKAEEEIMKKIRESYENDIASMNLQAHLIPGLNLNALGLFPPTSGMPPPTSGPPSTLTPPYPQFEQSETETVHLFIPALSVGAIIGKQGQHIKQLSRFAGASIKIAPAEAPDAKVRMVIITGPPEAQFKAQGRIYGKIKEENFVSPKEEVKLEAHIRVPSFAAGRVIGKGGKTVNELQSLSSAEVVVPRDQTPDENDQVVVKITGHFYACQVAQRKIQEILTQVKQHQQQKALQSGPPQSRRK
UniProt Q8BGW1: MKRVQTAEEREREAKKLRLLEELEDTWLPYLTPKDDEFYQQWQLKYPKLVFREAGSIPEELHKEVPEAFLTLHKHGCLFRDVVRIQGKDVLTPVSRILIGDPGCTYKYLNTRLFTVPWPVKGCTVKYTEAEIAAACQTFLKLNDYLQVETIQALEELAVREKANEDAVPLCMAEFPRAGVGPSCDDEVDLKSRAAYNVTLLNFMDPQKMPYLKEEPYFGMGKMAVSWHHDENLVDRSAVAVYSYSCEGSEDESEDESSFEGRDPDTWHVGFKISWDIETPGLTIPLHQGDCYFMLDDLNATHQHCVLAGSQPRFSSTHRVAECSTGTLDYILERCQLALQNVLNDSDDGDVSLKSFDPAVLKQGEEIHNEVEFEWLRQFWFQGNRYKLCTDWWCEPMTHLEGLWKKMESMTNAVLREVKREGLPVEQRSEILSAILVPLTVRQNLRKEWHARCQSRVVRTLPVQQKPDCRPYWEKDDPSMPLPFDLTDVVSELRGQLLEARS

B1: KAT8 (protein, UniProt Q9D1P2 1-458)
chain: T1 sequence

Legend:
Experiment in all cases: co-IP; 400 ug mouse cerebellum tissue lysate (E13.5, P3 and adult 16w; Fig. 6G-O) with 4 ug rabbit anti-FTO, anti-KAT8 or anti-IGF2BP3 (IgG as control) on protein A/G magnetic beads overnight at 4 °C; washed six times with PBS, 0.5% Tween-20; western blot; also done on Fto^KO tissue (Supplementary Fig. 6B; less FTO-KAT8)
[1] = target: T1, KAT8 (mouse (endogenous in cerebellum))
[2] = target: IGF2BP3 (mouse (endogenous in cerebellum)) (UniProt Q9CPN8)
[3] = target: FTO (mouse (endogenous in cerebellum)) (UniProt Q8BGW1)

Row | Molecule | binding [1] | binding [2] | binding [3]
1 | IGF2BP3 (from UniProt Q9CPN8 1-579) | binds |  | 
2 | B1 |  | binds | binds

Source: publication PMC12398073
